Reference: PubChem BioAssay AID2061304 (National Center for Advancing Translational Sciences (NCATS), 2025)
The shares of active, inactive and inconclusive entries below differ from those in the screen. A potency beside an inconclusive call is a rough fit, not a confirmed value. Calls of active or inactive are those of the source. The call rests on the fitted dose curve; in most records, active means well fitted inhibition curve with a large enough effect; inconclusive means small, poorly fitted or top-dose-only effect; inactive means flat fitted curve, though single readings scatter.

test: Identification of antibody-drug conjugate (ADC) payloads which are substrates of ATP-binding cassette drug efflux transporters: ABCB1-HeLa-KB-8-5-11 cell line; settings: KB-8-5-11 (P-gp overexpressing HeLa) viability, CellTiter-Glo, 48 h; series mostly up to 31.4 µM
Excerpt: Antibody-drug conjugates (ADCs) feature an antibody recognizing a specific protein joined to a potent toxic payload. Numerous antibody-drug conjugates have received FDA approval; however, clinical resistance arises. Resistance mechanisms include decreased expression or mutation of the antibody target, impaired payload release, or increased expression of ATP-binding cassette (ABC) efflux transporters associated with multidrug resistance. We therefore sought to characterize the interaction of ABC multidrug transporters with ADC payloads. We performed a high-throughput screen with 27 common ADC payloads using cells lines expressing ABC transporters P-glycoprotein (P-gp, encoded by ABCB1) or ABCG2 (encoded by ABCG2). Confirmatory assays were also performed using cells transfected to express P-gp, ABCG2, or MRP1 (encoded by ABCC1). Several commonly used ADC payloads were substrates of P-gp, including calicheamicin gamma1, monomethyl auristatin E, DM1, and DM4. All the pyrrolobenzodiazepines tested - SJG136, SGD-1882, SG2057, and SG3199 - were substrates of P-gp, ABCG2, and MRP1. […] These findings highlight the risk of transporter-mediated resistance with certain ADC payloads and underscore the importance of selecting payloads that evade ABC transporter recognition in future ADC development.
HEK-293 cells were transfected with empty vector (pcDNA) or vector containing the human ABCB1 (MDR-19), ABCG2 (R-5), or ABCC1 gene (MRP1) and were maintained in EMEM with 2 mg/mL G418 added to maintain transporter expression. The HeLa derivative KB-3-1 and the P-gp overexpressing KB-8-5-11 subline were maintained in DMEM; KB-8-5-11 additionally received 100 ng/mL colchicine. H460 parental cells were obtained from the Division of Cancer Treatment and Diagnosis Tumor Repository, National Cancer Institute at Frederick, MD and were cultured in RPMI. The ABCG2 expressing subline H460 MX20 was generated by selecting H460 cells in 20 nM mitoxantrone. Media in all cases was supplemented with 10% FBS and 1% penicillin-streptomycin. We explored 27 common ADC payloads, in two orthogonal, paired cell line sets-a drug selected and transfected set for each transporter--to identify substrates of the ABC transporters P-gp and ABCG2. Compounds were sourced from Levena Biopharma (San Diego, CA), Selleck Chem (Houston, TX), ChemieTek (Indianapolis, IN), or Microsource Discovery Systems (Gaylordsville, CT). Screening was performed as previously described. Briefly, cells were plated at a density of 500 cells/well in 1536 well plates with compounds added using a 1536-head pin tool (Kalypsys, San Diego CA). Cells were incubated with cytotoxic drugs and processed with CellTiter Glo reagent (Promega, Madison, WI) to determine viability after 48 hours. […]

Row | SMILES | Potency
1 | Cc1nc(Nc2ncc(C(=O)Nc3c(C)cccc3Cl)s2)cc(N2CCN(CCO)CC2)n1 | inconclusive: 18.8 µM [inhibitor, single point]
2 | CCN(C(C)=O)[C@H]1CO[C@@H](O[C@H]2[C@H](O[C@H]3C#C/C=C\C#C[C@]4(O)CC(=O)C(NC(=O)OC)=C3/C4=C\CSSSC)O[C@H](C)[C@@H](NO[C@H]3C[C@H](O)[C@H](SC(=O)c4c(C)c(I)c(O[C@@H]5O[C@@H](C)[C@H](O)[C@@H](OC)[C@H]5O)c(OC)c4OC)[C@@H](C)O3)[C@@H]2O)C[C@@H]1OC | inconclusive: 10.6 µM [inhibitor, partial curve]
3 | CC[C@]1(O)CC2CN(CCc3c([nH]c4ccccc34)[C@@](C(=O)OC)(c3cc4c(cc3OC)N(C)[C@H]3[C@@](O)(C(=O)OC)[C@H](OC(C)=O)[C@]5(CC)C=CCN6CC[C@]43[C@@H]65)C2)C1 (some centres undefined) | active: 0.298 µM
4 | COc1ccc(C2=CN3C(=O)c4cc(OC)c(OCCCOc5cc6c(cc5OC)C(=O)N5C=C(c7ccc(N)cc7)C[C@@H]5C=N6)cc4N=C[C@H]3C2)cc1 | inactive
